# Laboratory results as given in paper PMC7819943, “Rice protein-binding microarrays: a tool to detect cis-acting elements near promoter regions in rice”.
# This is one part of the list.
# Molecular target: T1, OsSMF1 (Oryza sativa, UniProt Q6ZLB0 1-436)
# T1 sequence: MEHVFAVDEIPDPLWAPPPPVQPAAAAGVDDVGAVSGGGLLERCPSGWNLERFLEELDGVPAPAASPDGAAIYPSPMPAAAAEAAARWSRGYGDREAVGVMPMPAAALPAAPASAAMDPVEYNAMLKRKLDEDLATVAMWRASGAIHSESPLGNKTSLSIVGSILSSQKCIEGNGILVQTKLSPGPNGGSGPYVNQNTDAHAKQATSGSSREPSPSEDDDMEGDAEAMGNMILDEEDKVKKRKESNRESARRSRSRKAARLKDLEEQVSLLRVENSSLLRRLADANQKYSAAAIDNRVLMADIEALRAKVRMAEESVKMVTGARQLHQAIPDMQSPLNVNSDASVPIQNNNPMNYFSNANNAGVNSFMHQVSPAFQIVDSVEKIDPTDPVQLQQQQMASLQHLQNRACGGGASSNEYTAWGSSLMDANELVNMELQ
# Assay: protein-binding microarray (RPBM); PBS, 2% BSA, 51.3 ng/ul salmon testes DNA, 50 uM zinc acetate, 200 nM TF, 25 C, 1 h; high values mean tight binding
# Details: protein: recombinant; tags: N-terminal polyhistidine and DsRed monomer fusion (pET32a); chain copies: 2; label: CyDye5-dUTP incorporated in the synthesized complementary strand; 3' TTTTT single-stranded linker to array surface; dsDNA, one strand shown
# Procedure, shortened: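 The binding signal is fluorescence intensity per array feature (arbitrary units). Readings came from an Axon 4000B scanner after a washed, 2% BSA-blocked, double-stranded custom Agilent array had been incubated for 1 h at 25 °C with 200 nM protein and 50 µM zinc acetate. The protein was a Ni–NTA-purified transcription factor fused N-terminally to polyhistidine and DsRed, expressed in E. coli BL21-CodonPlus.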
row,Sequence,binding signal
1,GCTGCAGCCATACATGACGACGCTTCAATTAGCATGTACTCGGAGTCACCTAGTGCAG,4260 fluorescence intensity (a.u.)
2,CAGACTCGCAGCCACTGGAACGCGAAATATTTCGGCTCCTCGGAGTCACCTAGTGCAG,3190 fluorescence intensity (a.u.)
3,CCGCCAGTGAAATCACGGCCGGTTTAACCTCTACATATATCGGAGTCACCTAGTGCAG,32300 fluorescence intensity (a.u.)
4,CATGCTATGTCTCAGAAAGATATATGACTGACTCAGGTCTCGGAGTCACCTAGTGCAG,4060 fluorescence intensity (a.u.)
5,TCCGTTCTGTTTATGAATAACGGTCGAAAACGTAATAACCCGGAGTCACCTAGTGCAG,46300 fluorescence intensity (a.u.)
6,GTGTTGGTTTCTACCATTAAATCCACATATTAATCATCCTCGGAGTCACCTAGTGCAG,3440 fluorescence intensity (a.u.)
7,ATCGCCCATGTGCGCGCATCACCGTCACCACGCCTGCCTTCGGAGTCACCTAGTGCAG,4140 fluorescence intensity (a.u.)
8,TTTTCGGATCAAATTGCCACGTAAGCGCCACGTCAGATGACGGAGTCACCTAGTGCAG,16000 fluorescence intensity (a.u.)
9,CGTCCCCTTTTATCTCATGGCCAAGGTGGCGCCATCTCCACGGAGTCACCTAGTGCAG,4570 fluorescence intensity (a.u.)
10,CCTCAACGTGCCCCTCTTCCCTTCTGTTGATGTGGCTAGCCGGAGTCACCTAGTGCAG,3550 fluorescence intensity (a.u.)
11,CGAAGGGTACACAGACTTCAGACACCACGGCCACCTCAGCCGGAGTCACCTAGTGCAG,3720 fluorescence intensity (a.u.)
12,TCCGGCCCGCCTGCCGGCGACGGCCGTGATGACGCGTCGGCGGAGTCACCTAGTGCAG,9740 fluorescence intensity (a.u.)
13,TGGCCGCGACGGCCTCATGCTCGTCCACCTCGGCTCCGTCCGGAGTCACCTAGTGCAG,3620 fluorescence intensity (a.u.)
14,GGAAAATATCTACGAAGTTCTACCGTAACGTGGCACCCAGCGGAGTCACCTAGTGCAG,4230 fluorescence intensity (a.u.)
15,CACAACGGAGACACGAATTTTACGTGGAAAACCCTTACGGCGGAGTCACCTAGTGCAG,3190 fluorescence intensity (a.u.)
16,TGTATTTGATCCTACGTATATCTATGAGCTGTTACTACTACGGAGTCACCTAGTGCAG,35800 fluorescence intensity (a.u.)
17,CGAGATTCTCTGCATTACTGTGGCTGACATGTGGGCTCTACGGAGTCACCTAGTGCAG,3310 fluorescence intensity (a.u.)
18,CAAACGGAGGAGCAGGCCCCACGTCCACCACCACCTCATCCGGAGTCACCTAGTGCAG,4210 fluorescence intensity (a.u.)
19,GATGCGGGACCTCAGCAGTGCTGTACACGTGTCATCCATCCGGAGTCACCTAGTGCAG,23300 fluorescence intensity (a.u.)
20,TACATATACGCTCGTCTCGCCGTCGCAACCTCGTCACCTACGGAGTCACCTAGTGCAG,4250 fluorescence intensity (a.u.)
21,AGTTTCTCTATGGGTAACTTCGGTTTGAAAGTAGTCTGAGCGGAGTCACCTAGTGCAG,37300 fluorescence intensity (a.u.)

row,Sequence,binding signal
1,TAGATGCTTCTTTCCCTTGTCATTATGTTTTCTTCCCTGACGGAGTCACCTAGTGCAG,3180 fluorescence intensity (a.u.)
2,GGAAGGGGTGACGTTCCCATTGTGATTCCCCTACGTTTGTCGGAGTCACCTAGTGCAG,3280 fluorescence intensity (a.u.)
3,GGGTTGAGATGGGAGTAGAGGGGAGTGAGGTGGAAGAAGACGGAGTCACCTAGTGCAG,3800 fluorescence intensity (a.u.)
4,GTAAAACGAACCCTAGGTTTGCTTTCCCCTCTCCTCTCGTCGGAGTCACCTAGTGCAG,26000 fluorescence intensity (a.u.)
5,TTGGGAGGGAGAGTGGTAAAGGGTGCTGGGGCTTTGGCTGCGGAGTCACCTAGTGCAG,4250 fluorescence intensity (a.u.)
6,AATAAATGTACATATGTATAATTAAAATCATCCATACTCACGGAGTCACCTAGTGCAG,31700 fluorescence intensity (a.u.)
7,TGGAGAGATTACTGGTGTGATTCACCTGAAATGCCTCGGGCGGAGTCACCTAGTGCAG,4470 fluorescence intensity (a.u.)
8,TGGCGTCCACGTGCTACCCCAAACCCACCCACCCAGCGCTCGGAGTCACCTAGTGCAG,6990 fluorescence intensity (a.u.)
9,TCACACTCTGGCTATGACACATTTACAATTTTATCTTGGACGGAGTCACCTAGTGCAG,3740 fluorescence intensity (a.u.)
10,TGTTGCTGTTGCTGCTGTGAAGAGCCGGGAGGGGTTGACGCGGAGTCACCTAGTGCAG,3460 fluorescence intensity (a.u.)
11,CCCTTCACCACCGGTTTCGGTTCGTCGGCACCAAGCCCCTCGGAGTCACCTAGTGCAG,3300 fluorescence intensity (a.u.)
12,CGACGCGGCCGCCACCTCCCCTGACGCTGTCAGAGAGTGGCGGAGTCACCTAGTGCAG,5900 fluorescence intensity (a.u.)
13,TCTCCCGCCTCGCCCCGTCAGTCTCCTCCCCACCCGCTGGCGGAGTCACCTAGTGCAG,4100 fluorescence intensity (a.u.)
14,CTGCAAGTCCTCTCCGGCGTCCGCTTCTTTTCTCGCTTCTCGGAGTCACCTAGTGCAG,3210 fluorescence intensity (a.u.)
15,TGTAAAACTAGACACCATGACTAATGTCATGTATAACTAGCGGAGTCACCTAGTGCAG,3400 fluorescence intensity (a.u.)
16,CCTTTTCCCTCGCTTATGTTTGCACCCTGACCATAATGATCGGAGTCACCTAGTGCAG,3270 fluorescence intensity (a.u.)
17,CGCTCGCCGCCCGCCGCCGACGGCGCGGCCGCGCTCTTCTCGGAGTCACCTAGTGCAG,3460 fluorescence intensity (a.u.)
18,ATCGTCCTCTGCACCTGCACACATCATCACTGGGACAACCCGGAGTCACCTAGTGCAG,3920 fluorescence intensity (a.u.)
19,CTACACACGAGACGTGCAAACCTGCAGATTTTGTTACTTGCGGAGTCACCTAGTGCAG,4830 fluorescence intensity (a.u.)
20,CTTGCAGAGGTGGCGCTACAGCCGGCGTCCAGGCGTATGGCGGAGTCACCTAGTGCAG,3920 fluorescence intensity (a.u.)
21,GTCCAATAGAAGAAAGGTAGGCGGTAGAAGTACTGTGAACCGGAGTCACCTAGTGCAG,4000 fluorescence intensity (a.u.)

# Look-ups from the entries so far:
# binding signal, GGGTTGAGATGGGAGTAGAGGGGAGTGAGGTGGAAGAAGACGGAGTCACCTAGTGCAG reads 3800 fluorescence intensity (a.u.)
# binding signal, TCACACTCTGGCTATGACACATTTACAATTTTATCTTGGACGGAGTCACCTAGTGCAG reads 3740 fluorescence intensity (a.u.)
